Out of some 320,000 compounds screened, about 22,000 (6.9%) were called active. Inconclusive means that the source gave no clear call. Such entries were picked first, then a sample of the others. Calls follow the shape of the dose curve; as a rule, active = well fitted inhibition curve with a large enough effect; inconclusive = small, poorly fitted or top-dose-only effect, or another doubt; inactive = no such curve, though single readings can be large or run the other way. A potency beside an inconclusive call is a rough fit, not a confirmed value.
Experiment: Primary qHTS for delayed death inhibitors of the malarial parasite plastid, 96 hour incubation
Settings: P. falciparum luciferase reporter growth; series mostly up to 28.7 µM; activity change, negative = inhibition: at the top concentration
Method in brief: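 Infected RBCs, 2% Hct / 0.05% parasitemia final; luciferase-reporter P. falciparum; cpd 96 h, 37 C, 5% CO2; luciferase detection reagent; luminescence.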
With Cc1ccc(NC(=O)CSc2nnc(Cn3cnc4ccccc43)o2)c(C)c1 the “activity change, negative = inhibition” value was inactive: 53.8%.
With COCCNc1oc(Cc2cccc3ccccc23)nc1C#N the Potency was inconclusive: 3.29 µM [inhibitor, single point].
With COc1ccc(CNC(=O)c2ccc(NC(=O)C3=CSCCO3)cc2)cc1 the Potency was inconclusive: 0.0023 µM [inhibitor, full curve, poor fit].
With Cc1nc(-c2ccc(Cl)cc2)oc1COC(C)(C)C(=O)O the Potency was inconclusive: 3.01 µM [inhibitor, full curve, poor fit].
In the case of O=C(CN1CCN(C(=O)C2CCCO2)CC1)Nc1cc(Cl)ccc1Cl (stereo not given), the “activity change, negative = inhibition” value is reported as inactive: 6.38%.
For CCOc1ccc(OCC)c(NC(=O)CCS(=O)(=O)c2ccc(C)cc2)c1, the Potency was inconclusive: 9.28 µM [inhibitor, partial curve, poor fit].
With Cc1cc(S(=O)(=O)NCc2ccco2)c(C)s1 the Potency was active: 7.38 µM.
For CC(Nc1cccc2ccccc12)C(=O)N/N=C/c1ccccn1 (stereo not given), the Potency was inconclusive: 18.5 µM [inhibitor, single point].
With CCc1ccc(NC(=O)NCc2cccnc2)cc1 the Potency was inconclusive: 18.5 µM [inhibitor, single point].
With COc1ccc(/C=c2/sc3n(c2=O)C(c2ccccc2OC)C2=C(N=3)c3ccccc3CC2)cc1O (stereo not given) the Potency was active: 2.33 µM.
In the case of COCCNC(=O)CN(C)S(=O)(=O)c1ccc(Br)cc1, the Potency is reported as inconclusive: 13.1 µM [inhibitor, partial curve, poor fit].
For CCOc1ccc(CCNC(=O)c2nnn(CC(=O)Nc3ccc(OC)cc3)c2N)cc1OCC, the Potency was inconclusive: 18.5 µM [inhibitor, single point].
With COc1ccc(NC(=O)C(=O)N2N=C(C(C)C)CC2(O)C(F)(F)F)cc1 (stereo not given) the Potency was inconclusive: 0.0522 µM [inhibitor, full curve, poor fit].
For CC1S/C(=N/N=C/c2ccco2)N(Cc2ccc(F)cc2)C1=O (stereo not given), the “activity change, negative = inhibition” value was inactive: 15%.
In the case of Nc1ccc2ncccc2c1N, the Potency is reported as inconclusive: 10.4 µM [inhibitor, single point].
For c1nc2n(n1)C1=C(CCCC1)C1(CCCCC1)N2, the Potency was active: 2.62 µM.
For CCCSc1ncnc2c1oc1ccccc12, the Potency was inconclusive: 3.7 µM [inhibitor, partial curve].
In the case of CCN(CC)S(=O)(=O)c1cccc(NC(=O)c2ccc(SC)cc2OC)c1, the Potency is reported as inconclusive: 1.17 µM [inhibitor, full curve, poor fit].
For COc1ccc(CNS(=O)(=O)c2cc(Br)cc3c2N(C(C)=O)C(C)C3)cc1 (stereo not given), the Potency was active: 4.15 µM.
In the case of O=C(N/N=C/c1ccco1)c1ccn[nH]1, the “activity change, negative = inhibition” value is reported as inactive: 14.5%.

From PubChem BioAssay AID504834 (National Center for Advancing Translational Sciences (NCATS), 2011)
% is scaled to controls: 0 for no effect and ±100 for the full control effect; potency is read from the fitted curve at half-maximal effect.
